Measurements published in PubChem BioAssay AID2551 (National Center for Advancing Translational Sciences (NCATS), 2010).
Out of some 310,000 compounds screened, about 17,000 (5.5%) were called active. This list was built around the results that the source calls inconclusive (neither active nor inactive); the mix of calls is not that of the screen. Calls follow the shape of the dose curve; as a rule, active = well fitted inhibition curve with a large enough effect; inconclusive = small, poorly fitted or top-dose-only effect, or effect the other way; inactive = no such curve, though single readings can be large or run the other way. A potency beside an inconclusive call is a rough fit, not a confirmed value.

Chains of the proteins cited; added tags and fusions are not shown. Lines headed by an entry give the natural chain unless they say otherwise; changes in a name come on top.
UniProt P51450: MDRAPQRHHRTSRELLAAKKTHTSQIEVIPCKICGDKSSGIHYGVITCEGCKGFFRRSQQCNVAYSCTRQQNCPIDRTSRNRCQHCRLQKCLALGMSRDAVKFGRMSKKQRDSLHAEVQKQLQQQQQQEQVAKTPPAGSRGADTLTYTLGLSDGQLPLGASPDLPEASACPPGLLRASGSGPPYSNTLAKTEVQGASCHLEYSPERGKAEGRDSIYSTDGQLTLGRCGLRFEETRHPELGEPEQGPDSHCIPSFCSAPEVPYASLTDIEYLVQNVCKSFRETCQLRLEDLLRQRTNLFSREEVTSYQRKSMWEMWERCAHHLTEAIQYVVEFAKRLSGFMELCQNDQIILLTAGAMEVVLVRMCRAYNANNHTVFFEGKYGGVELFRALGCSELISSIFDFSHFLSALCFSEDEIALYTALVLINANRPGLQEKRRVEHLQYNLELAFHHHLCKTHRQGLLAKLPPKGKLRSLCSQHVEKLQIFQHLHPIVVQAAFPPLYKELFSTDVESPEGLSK

Target: Nuclear receptor ROR-gamma (Mus musculus) (UniProt P51450)
Assay: qHTS for inhibitors of ROR gamma transcriptional activity; also: nearly all actives have a fitted effect of over 60% in size
Conditions: Drosophila S2 Gal4-RORgamma UAS-luciferase reporter, 20 h; activity change, negative = inhibition: at 53.6 µM (top of the series)
Procedure, shortened: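 Schneider cells (Drosophila), stable Gal4 DBD–ROR gamma + UAS-luc; 1 hr cmpd preincubation; Cu2+ induction 700 uM final; 20 hr ambient; luminescence.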
% is scaled to controls: 0 for no effect and ±100 for the full control effect; potency is read from the fitted curve at half-maximal effect.

Potency, active:
Cc1ccsc1/C=N/Nc1nc2ccccc2s1 0.562 µM
O=c1c(O)c(-c2ccc(O)cc2)oc2ccccc12 7.94 µM
Cc1cc(C=C2C(=O)CCCC2=O)c(C)n1-c1ccccc1 8.91 µM
CC1(C)COCN1S(=O)(=O)c1ccc(C(=O)Nc2nnc(-c3ccc(Cl)s3)o2)cc1 0.112 µM
Cc1cccc(CS(=O)(=O)c2ncc(Cl)c(C(=O)NCc3ccccc3)n2)c1 5.62 µM
CC(/C=C/c1cccc([N+](=O)[O-])c1)=N/NC(=O)c1cccnc1 3.16 µM
CC(C)N=C(NS(=O)(=O)c1ccccc1)C(Cl)(Cl)Cl 7.08 µM
COc1ccc(C(=O)NC(=S)Nc2nnn(C)n2)cc1 5.62 µM
CCOC(=O)c1c(NC(=S)NC(C)=O)sc(C)c1C 7.94 µM
CC(C)(C)C1C/C(=C/c2ccccn2)C(=O)/C(=C/c2ccccn2)C1 (stereo not drawn) 5.62 µM
S=C1NC(c2cccs2)=CC(c2ccc(Br)cc2)N1 (stereo not drawn) 3.55 µM
COc1ccccc1NC(=S)NNC(=O)c1ccc(Cl)cc1Cl 12.6 µM
O=C(O)c1ccc(/C=N/Nc2ncc(C(F)(F)F)cc2Cl)cc1 10 µM
CCc1ccc(NC(=S)N2CCCCCCC2)cc1 5.62 µM

Potency, inconclusive:
COc1cc([N+](=O)[O-])ccc1NC(=O)CCCOc1ccccc1 35.5 µM [activator, single point]
Cc1nc2ccc(NC(=O)C3CCN(S(=O)(=O)c4cccs4)CC3)cc2s1 11.2 µM [activator, partial curve]
CC(C)Oc1ccc(/C=N/NC(=O)C(CSCc2ccccc2)NC(=O)c2ccc([N+](=O)[O-])cc2)cc1 (stereo not drawn) 6.31 µM [activator, single point]
CCC(=C/c1sc2ccc3ccccc3c2[n+]1C)/C=C1\Sc2ccc3ccccc3c2N1C 5.01 µM [inhibitor, partial curve, poor fit]
CC(=O)Oc1ccc(Cl)cc1/C=C/c1cc(OC(C)=O)c2ccccc2n1 11.2 µM [activator, partial curve]
Cn1c(=O)c2c(nc(NCCCO)n2Cc2cccc(C(F)(F)F)c2)n(C)c1=O 14.1 µM [activator, partial curve]
COc1ccccc1NC(=O)CC1Nc2ccccc2NC1=O (stereo not drawn) 0.316 µM [inhibitor, partial curve, poor fit]
CCO[C@@H]1OC(C(=O)N2CCN(Cc3ccccc3)CC2)=C[C@H](c2ccc(C(F)(F)F)cc2)[C@H]1CCCO 15.8 µM [activator, single point]
Cc1ccc(NC(=S)N(CCCN2CCCC2)Cc2cccn2Cc2ccc(Cl)cc2)cc1Cl 0.355 µM [inhibitor, full curve, poor fit]
Cc1ccc(NC(=O)c2cc(S(=O)(=O)NCCC3=CCCCC3)ccc2F)cc1 20 µM [activator, single point]
COc1ccc(-n2c(-c3ccco3)nc3c(cnn3-c3ccc(C)cc3)c2=O)cc1 28.2 µM [activator, partial curve, poor fit]
O=C(O)C1C2CCC(O2)C1C(=O)Nc1ccc(O)cc1 (stereo not drawn) 22.4 µM [inhibitor, single point]
COc1cc(OC)c(CN2CCC(CO)(CCOc3ccccc3)CC2)c(OC)c1 35.5 µM [activator, single point]
CC1Sc2ccc(S(=O)(=O)N3CCC(C(=O)NCCc4ccccc4)CC3)cc2NC1=O (stereo not drawn) 28.2 µM [activator, single point]
CC1CCC(C(C)C)C(OC(=O)Cn2c(-c3ccc(F)cc3)[n+](C)c3ccccc32)C1 (stereo not drawn) 35.5 µM [inhibitor, single point]
COc1cc([C@@H]2c3cc4c(cc3[C@@H](NC3CCN(Cc5ccccc5)CC3)[C@H]3COC(=O)[C@H]23)OCO4)cc(OC)c1O 2.82 µM [inhibitor, partial curve]
CC(C)Oc1ccc(C(=O)Nc2ccc(Cl)c(S(=O)(=O)Nc3ccc(Cl)cc3)c2)cc1 31.6 µM [activator, single point]
COc1ccc(CNC(=O)C/C(C)=N/NC(=O)C23CC4CC(CC(C4)C2)C3)cc1 22.4 µM [inhibitor, single point]
O=c1oc2ccccc2c(Nc2ccc(Cl)cc2)c1[N+](=O)[O-] 28.2 µM [inhibitor, single point]
CCCC(=O)N1CCN(c2ccc(NC(=O)c3ccc([N+](=O)[O-])o3)cc2)CC1 22.4 µM [inhibitor, single point]
CCCCn1c(CN(C)Cc2ccccc2)nc2c1c(=O)n(C)c(=O)n2C 11.2 µM [activator, single point]
CCN(CC)S(=O)(=O)c1cccc(-c2cn3cc(C)ccc3n2)c1 20 µM [inhibitor, single point]
CN(C)/C=C/c1onc(-c2ccccc2Cl)c1C#N 11.2 µM [activator, partial curve]
CC(C)(C)c1ccc(-c2noc(CCC(=O)N3CCOCC3)n2)cc1 11.2 µM [inhibitor, partial curve, poor fit]
C#CC(C)(C)NC(=S)NC1CC2C=CC1C2 (stereo not drawn) 11.2 µM [inhibitor, partial curve]
O=C(C1CCC(CNS(=O)(=O)c2cccs2)CC1)N1CCN(c2ccc(F)cc2)CC1 (stereo not drawn) 10 µM [activator, partial curve]
Cc1ccc2nc(Cl)c(/C=N/NC(=O)c3ccccc3O)cc2c1 35.5 µM [inhibitor, single point]
Cc1c(C(=O)Nc2cccc([N+](=O)[O-])c2)cnn1-c1ccccc1 12.6 µM [activator, partial curve]
COc1ccc2nc(NC3=NCCC3)sc2c1 35.5 µM [inhibitor, single point]
Clc1cccc(Cl)c1CON/C=N/c1ncnc2sccc12 12.6 µM [activator, partial curve]
CCOC(=O)N1CCC(NC(=O)C2CCN(S(=O)(=O)c3cccc4cccnc34)CC2)CC1 0.0891 µM [inhibitor, full curve]
O=C(CSc1ccccc1)N1CCN(c2ccccc2)CC1 0.501 µM [activator, full curve]
CCCC(=O)N1CCN(c2ccc(NC(=S)NC(=O)c3cccc(C)c3)cc2)CC1 35.5 µM [inhibitor, single point]
O=C(CSc1nnc(Nc2ccccc2F)s1)Nc1cccc(S(=O)(=O)N2CCCCC2)c1 17.8 µM [activator, single point]
Cc1ccc(Nc2cccccc2=O)cc1 2 µM [activator, partial curve, poor fit]
O=C(COC(=O)c1cnccn1)c1ccc(C2CCCCC2)cc1 6.31 µM [activator, partial curve, poor fit]
CCN(CC)S(=O)(=O)c1ccc(/C=C/C(=O)NC2CCCCC2)cc1 14.1 µM [activator, single point]
Cc1cc(/C=N/NC(=O)c2cccs2)c(C)n1-c1cnccn1 20 µM [inhibitor, single point]
COC(=O)CN1C(=O)C(O)(CC(=O)c2ccc(C)cc2)c2cc(Br)ccc21 (stereo not drawn) 0.005 µM [activator, full curve]

Potency, inactive:
Cc1cc(O)c(C(C)C)cc1Cl

Activity change, negative = inhibition, inactive:
O=C(NCCOc1ccc(Cl)cc1)C1CC(=O)N(c2ccc(F)cc2)C1 (stereo not drawn) -42.1%
CCc1ccc(NC(=O)CN(CC(=O)Nc2ccc(CC)cc2)CC(C)O)cc1 (stereo not drawn) 0%
CC(=O)Nc1ccc(S(=O)(=O)NNC(=O)c2cc3c4ccccc4n(C)c3s2)cc1 -20.1%
N#Cc1nc(Cl)c(Cl)c(NN)c1Cl 22.5%
CC(=O)OCC1OC(C#Cc2ccc(C)cc2C)C=CC1OC(C)=O (stereo not drawn) 21% [at 10 µM]
CCC(C)NC(=O)CSc1nnc(-c2ccc(OC)c(OC)c2)c(-c2ccc(OC)c(OC)c2)n1 (stereo not drawn) -13.6%
CC1(c2cccc3ccccc23)NC(=O)N(CC(=O)NC2CCS(=O)(=O)C2)C1=O (stereo not drawn) -5.42%
CN1CC=C2C(C#N)=C(N)C(C#N)(C#N)[C@H](c3ccoc3)[C@H]2C1 -4.48%
COc1cccc(CN(C)CC(=O)Nc2sc3c(c2C#N)CCC3)c1OC 1.31%
Cc1cccc(-c2nc(CS(=O)CC(=O)N3CCN(C)CC3)c(C)o2)c1 (stereo not drawn) -9.57%
CCN1CCN(C(=O)c2ccc3c(c2)N(Cc2ccc(F)cc2)C(=O)c2ccccc2S3=O)CC1 (stereo not drawn) -30.6%
O=C(c1cccc(F)c1)N1CCC2(CC1)CN(C(c1ccccc1)c1ccccc1)C2 42.4%
CSc1ncccc1C(=O)OCn1nnc2ccccc2c1=O 8.9%
N=c1c(-c2nc3ccccc3[nH]2)cc(C(=O)c2cccs2)nn1-c1ccccc1 -3.53%
CCn1ncc(/C=C/C(=O)NCc2cn(C)nc2C)c1C -17.2%
COCCn1c(SCC(=O)NC2CCCC2)nc2c(c1=O)SCC2 -0.267%
CSc1ccc(C(=O)C2CCCN(C(=O)CCn3cncn3)C2)cc1 (stereo not drawn) 14.3%
Cn1c(=O)c2c(nc(N/N=C/c3cccs3)n2C)n(C)c1=O 27.9%
C/C(=N/O)c1ccccn1 -28.2%

Arranged by length of the SMILES (smallest number first): part of the list above.
Activity change, negative = inhibition, inactive:
N#Cc1nc(Cl)c(Cl)c(NN)c1Cl 22.5%
Cn1c(=O)c2c(nc(N/N=C/c3cccs3)n2C)n(C)c1=O 27.9%
COc1cccc(CN(C)CC(=O)Nc2sc3c(c2C#N)CCC3)c1OC 1.31%
CCc1ccc(NC(=O)CN(CC(=O)Nc2ccc(CC)cc2)CC(C)O)cc1 (stereo not drawn) 0%
